This is one part of the list.

By UniProt entry, the sequences of proteins in these tests, tags left out.
UniProt Q0JBA9, entry or part of it: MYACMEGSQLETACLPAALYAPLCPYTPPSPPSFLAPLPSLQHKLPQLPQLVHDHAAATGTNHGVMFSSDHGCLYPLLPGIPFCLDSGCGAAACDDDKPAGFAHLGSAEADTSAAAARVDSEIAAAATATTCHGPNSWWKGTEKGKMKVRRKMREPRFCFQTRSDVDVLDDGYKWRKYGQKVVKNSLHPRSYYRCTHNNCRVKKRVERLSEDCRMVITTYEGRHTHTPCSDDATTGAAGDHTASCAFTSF

This assay deals with OsWRKY34 (Oryza sativa, UniProt Q0JBA9 1-250). As to the kind of experiment: protein-binding microarray (RPBM); PBS, 2% BSA, 51.3 ng/ul salmon testes DNA, 50 uM zinc acetate, 200 nM TF, 25 C, 1 h; high values mean tight binding. To be noted: protein: recombinant; tags: N-terminal polyhistidine and DsRed monomer fusion (pET32a); label: CyDye5-dUTP incorporated in the synthesized complementary strand; 3' TTTTT single-stranded linker to array surface; dsDNA, one strand shown. The essentials:
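Binding signal here means per-feature fluorescence intensity in arbitrary units. The values were read on an Axon 4000B scanner after a custom Agilent array, double-stranded by primer extension with Cy5-dUTP, was incubated with 200 nM protein at 25 °C for 1 h in PBS with 2% BSA, salmon testes DNA and 50 µM zinc acetate, then washed. The proteins were transcription factors with an N-terminal polyhistidine tag and DsRed, expressed in E. coli BL21-CodonPlus and purified on Ni–NTA.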
As for “CCGCGCGCGTATCCGTGATCTCTCTTTTCCCGCGCTCCTTCGGAGTCACCTAGTGCAG”, the binding signal is 8340 fluorescence intensity (a.u.).
The figure for “AGTCGGGCATTTTTTTTAACCTCAGCATTTATGGGCTTTTCGGAGTCACCTAGTGCAG” is 9120 fluorescence intensity (a.u.).
The figure for “TGCACGCTGTCGTCCCTCTCCCTCTCATTGTTCCATTCATCGGAGTCACCTAGTGCAG” is 9480 fluorescence intensity (a.u.); for “TCTATTGGGGCGGGGTGTGGTAAGGAAATTACAGTTTGCACGGAGTCACCTAGTGCAG” it is 17700 fluorescence intensity (a.u.); for “TCTATCGTTTATGGATTTAACCACGGTTTCTTTGTCCTTGCGGAGTCACCTAGTGCAG” it is 8830 fluorescence intensity (a.u.).
As for “TCGTCTGTTCTTGTTATTCTTGGTTTCTTCCGGGTACTGACGGAGTCACCTAGTGCAG”, the binding signal was 10300 fluorescence intensity (a.u.).
Next, “ATAAGTTTTTCTAGGGGTCTACTTACGAAATAAGTTTTTCCGGAGTCACCTAGTGCAG”: 8080 fluorescence intensity (a.u.); “TTATATTTTTTTTGGCCGTATTTCGTAGCGAGAAAATTTTCGGAGTCACCTAGTGCAG”: 10400 fluorescence intensity (a.u.); “GAATTATTTGGTCAGTGTCACTTGCTGCCAGGACCCAACACGGAGTCACCTAGTGCAG”: 8390 fluorescence intensity (a.u.).
In the case of “ACCTCTTTTTCTCTTTTTCTCGCTCGCCTCCGTACGCCACCGGAGTCACCTAGTGCAG”, the binding signal was 11100 fluorescence intensity (a.u.).
“GTGTCCCTTTTGTGTGTTCTTTATTACTATATGTGACAGTCGGAGTCACCTAGTGCAG”: the binding signal was 12200 fluorescence intensity (a.u.).
The figure for “TCTAACATATAGTAGTAGGCTATAATTGCTTTGTTTGTGTCGGAGTCACCTAGTGCAG” is 9080 fluorescence intensity (a.u.); for “AAACTAAAACGCAACATATATACTCAAACATAACATATTACGGAGTCACCTAGTGCAG” it is 8140 fluorescence intensity (a.u.).
Regarding “ATACTTTAAACTGTGTTTGCTTTTGATCACCCGTTTCTGACGGAGTCACCTAGTGCAG”, the binding signal is 8520 fluorescence intensity (a.u.).
Take “GGAGGTGGTGGCGCTGCCTCGGGGCCCCTCGCCTGGGAGGCGGAGTCACCTAGTGCAG”: the binding signal is 9800 fluorescence intensity (a.u.).
Regarding “ACCTGGACGCGTCGAACCCGGTGGTGCGGGCGGCGTGGGGCGGAGTCACCTAGTGCAG”, the binding signal was 8170 fluorescence intensity (a.u.).
The figure for “ATAACACCAGTTTGCAATTTAAGTTTCGTGCCTTACTTGTCGGAGTCACCTAGTGCAG” is 8830 fluorescence intensity (a.u.).
Next, “TTGCTGTTCCCGCTCGCCACACACTTTCGCCTTTCTGACTCGGAGTCACCTAGTGCAG”: 11800 fluorescence intensity (a.u.); “TCTCTCTCTCTCTCCTACTGTTAGGGTTTGCCTCCTTGCTCGGAGTCACCTAGTGCAG”: 11700 fluorescence intensity (a.u.); “TCCCTGTTCTGTCTTTCTTCCTAGGCTTAACTATTTGGGCCGGAGTCACCTAGTGCAG”: 9860 fluorescence intensity (a.u.).
Consider “TAGTTTTTGCCTACAAGTTTTGTCCATGGTACTGTGTTACCGGAGTCACCTAGTGCAG”, for which the binding signal is 9760 fluorescence intensity (a.u.).
The figure for “TATGCATCTCCGGATCTCCCCATGAGTTGACCACTACAGTCGGAGTCACCTAGTGCAG” is 9890 fluorescence intensity (a.u.); for “GGGGACGCAGGAGGAGGTGGGTGGGTCGAGCTCGCTTGCGCGGAGTCACCTAGTGCAG” it is 15400 fluorescence intensity (a.u.); for “GTGTTCGTCGCCGTCCGCGCTCGCTTGTCGCGGTCCCGGCCGGAGTCACCTAGTGCAG” it is 8090 fluorescence intensity (a.u.).
Take “TAATATATGTTGCCTCTCCTTTCGAATAACCTCATGTCTACGGAGTCACCTAGTGCAG”: the binding signal is 8450 fluorescence intensity (a.u.).
The figure for “ATCTCTCCTTGCCTGCTGTGCTGTCCGTTCGATCGAGCTTCGGAGTCACCTAGTGCAG” is 8450 fluorescence intensity (a.u.).
For “TTGCTTCTATCGGCCCGTTTCCATCTCGCTCTACGCGACTCGGAGTCACCTAGTGCAG”, the binding signal is 11500 fluorescence intensity (a.u.).
Turning to “CCTCGTTAAAACCCGCGTCGTTCTCACACACACTTCCACCCGGAGTCACCTAGTGCAG”, the binding signal is 12900 fluorescence intensity (a.u.).
Next, “ACTTGTTGACTAACTATTGTTAACTGTTATGCTGTGGTATCGGAGTCACCTAGTGCAG”: 8340 fluorescence intensity (a.u.); “GATCCCGTTCCGGTCGCAGCCATCGCCTATCGCGGCGCCGCGGAGTCACCTAGTGCAG”: 9790 fluorescence intensity (a.u.).
Next, “CGGCGGTCAAACACAAATTTTAACAGAAGGCTACCTTGACCGGAGTCACCTAGTGCAG”: 12200 fluorescence intensity (a.u.); “GTAGTGCTGATGTTGTACTGTGTTTTTTTACCCGTTTTATCGGAGTCACCTAGTGCAG”: 11500 fluorescence intensity (a.u.).
The figure for “TACTAAACAAAGCGCGTGCTATCTCTTTCGTTTTGACCACCGGAGTCACCTAGTGCAG” is 8770 fluorescence intensity (a.u.); for “CTGCCATCGCGTCGGCGTCGCGCCGCTGCCGTTGACCGTGCGGAGTCACCTAGTGCAG” it is 16700 fluorescence intensity (a.u.); for “TAGTACTCCGCCGCCGTGGACCCGGTCTTCCTACACCCCACGGAGTCACCTAGTGCAG” it is 8500 fluorescence intensity (a.u.).
On to “ACGGTTGTGTATTTCATAGTAGGGTGTAAATGTACGCTGACGGAGTCACCTAGTGCAG”, for which the binding signal is 8030 fluorescence intensity (a.u.).
Next, “CTGATTCATTATACTAGGAGGGGTGGGAGGGAGGGAGTACCGGAGTCACCTAGTGCAG”: 18800 fluorescence intensity (a.u.); “CGGGCACGTGCCACGACGACGCCCTATCCACCACACTATCCGGAGTCACCTAGTGCAG”: 9400 fluorescence intensity (a.u.).
Regarding “GTATGTTTCGTGAGTAATGCCACTAATATGTGCTGTTATACGGAGTCACCTAGTGCAG”, the binding signal is 8040 fluorescence intensity (a.u.).
The figure for “TTCGTTAACAACCTCGACTACTCCATATGCCCAATTAATTCGGAGTCACCTAGTGCAG” is 8230 fluorescence intensity (a.u.); for “CCTCCTCGTCCACCTCCTCTCCCGCATCGCCGCCGCCGCGCGGAGTCACCTAGTGCAG” it is 8980 fluorescence intensity (a.u.).
The figure for “TTTTCTATACTGTATTTTGTGTCATTTTCAATCATTGATTCGGAGTCACCTAGTGCAG” is 14400 fluorescence intensity (a.u.).
